Experimental data: publication doi:10.1101/2025.01.31.635913

Biological target: T1, AtMC1^C220A-GFP (catalytically inactive AtMC1 fused to C-terminal GFP), transiently expressed in N. benthamiana (Arabidopsis thaliana) (UniProt Q7XJE6)
T1 sequence: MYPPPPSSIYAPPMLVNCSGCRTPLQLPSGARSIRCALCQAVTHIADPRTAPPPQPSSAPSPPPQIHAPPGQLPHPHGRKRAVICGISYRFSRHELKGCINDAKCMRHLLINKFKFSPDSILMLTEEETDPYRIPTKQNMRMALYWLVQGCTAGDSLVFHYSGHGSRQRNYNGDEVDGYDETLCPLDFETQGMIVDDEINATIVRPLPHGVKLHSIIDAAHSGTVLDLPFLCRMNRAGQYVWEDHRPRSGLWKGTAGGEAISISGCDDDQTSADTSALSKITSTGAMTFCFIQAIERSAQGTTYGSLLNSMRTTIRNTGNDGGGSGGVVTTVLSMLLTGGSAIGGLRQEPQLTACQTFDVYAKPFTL
Test: co-IP

binding: binds
Substance: SSI4 (AT5G41750)-3xHA, transiently expressed in N. benthamiana (from UniProt Q9LSX5) (receptor)

Results are given in words; binding and its absence hold for the method and conditions named. Binding seen in cells or lysates may run through a third protein. Binding can be weak; no strength is given. Tags and fused reporters may be left off the sequences shown.
